{"source": "PubChem BioAssay AID652272 (Drosophila RNAi Screening Center, 2013)", "assay": "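Finding fly genes that regulate Hedgehog signal transduction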 (primary screen)", "system": "Drosophila clone 8 (Cl8) cells", "reagents": "long dsRNA against Drosophila genes", "measurement": "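Firefly light from a Hedgehog-responsive ptc promoter reporter and Renilla reference light, both read on a plate reader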", "reading the numbers": "firefly Hh reporter signal: higher = more ptc reporter light; Renilla reference signal: higher = more Renilla control light", "hit rule": "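Called a hit if the two-replicate mean z-score lies below -2 or above +3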", "calls": "active = hit: reporter lowered or raised; inactive = not a hit", "note": "In all, the deposit lists about 21,000 reagents; this is an unselected part of those that have a named target and a result. Of all reagents, 503 (2.4%) got an active call. 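Raw plate light values, not normalised; calls rest on replicate z-scores that were not deposited; hits include reporter decreases as well as increases.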 The record does not give: the amount of reagent, the time to read-out."}
{"Gene": "AdipoR", "DRSC id": "DRSC15767", "firefly Hh reporter signal, replicate 1": 1.17e5, "firefly Hh reporter signal, replicate 2": 88117, "Renilla reference signal, replicate 1": 4633, "Renilla reference signal, replicate 2": 3890, "Outcome": "inactive"}
{"Gene": "CG5641", "DRSC id": "DRSC15852", "firefly Hh reporter signal, replicate 1": 1.21e5, "firefly Hh reporter signal, replicate 2": 81419, "Renilla reference signal, replicate 1": 5063, "Renilla reference signal, replicate 2": 3424, "Outcome": "inactive"}
{"Gene": "Ag5r", "DRSC id": "DRSC19327", "firefly Hh reporter signal, replicate 1": 1.12e5, "firefly Hh reporter signal, replicate 2": 60200, "Renilla reference signal, replicate 1": 2723, "Renilla reference signal, replicate 2": 1571, "Outcome": "inactive"}
{"Gene": "Pdhb", "DRSC id": "DRSC14420", "firefly Hh reporter signal, replicate 1": 99197, "firefly Hh reporter signal, replicate 2": 75104, "Renilla reference signal, replicate 1": 2375, "Renilla reference signal, replicate 2": 2308, "Outcome": "inactive"}
{"Gene": "CG13024", "DRSC id": "DRSC09904", "firefly Hh reporter signal, replicate 1": 1.43e5, "Renilla reference signal, replicate 1": 1430, "Renilla reference signal, replicate 2": 3650, "Outcome": "inactive"}
{"Gene": "alphaCOP", "DRSC id": "DRSC08706", "firefly Hh reporter signal, replicate 1": 58280, "firefly Hh reporter signal, replicate 2": 40967, "Renilla reference signal, replicate 1": 4288, "Renilla reference signal, replicate 2": 3238, "Outcome": "active"}
{"Gene": "fz2", "DRSC id": "DRSC09595", "firefly Hh reporter signal, replicate 1": 2.37e5, "Renilla reference signal, replicate 1": 4419, "Outcome": "inactive"}
{"Gene": "fz2", "DRSC id": "DRSC10087", "firefly Hh reporter signal, replicate 1": 1.20e5, "firefly Hh reporter signal, replicate 2": 5.65e5, "firefly Hh reporter signal, replicate 3": 76608, "Renilla reference signal, replicate 1": 4836, "Renilla reference signal, replicate 2": 33896, "Outcome": "inactive"}
{"Gene": "fz2", "DRSC id": "DRSC11349", "firefly Hh reporter signal, replicate 1": 67275, "firefly Hh reporter signal, replicate 2": 95755, "Renilla reference signal, replicate 1": 2231, "Renilla reference signal, replicate 2": 2637, "Outcome": "inactive"}
{"Gene": "Wdr59", "DRSC id": "DRSC02771", "firefly Hh reporter signal, replicate 1": 1.15e5, "firefly Hh reporter signal, replicate 2": 1.17e5, "Renilla reference signal, replicate 1": 4914, "Renilla reference signal, replicate 2": 5080, "Outcome": "inactive"}
{"Gene": "sov", "DRSC id": "DRSC17930", "firefly Hh reporter signal, replicate 1": 73200, "firefly Hh reporter signal, replicate 2": 86122, "Renilla reference signal, replicate 1": 2333, "Renilla reference signal, replicate 2": 1632, "Outcome": "inactive"}
{"Gene": "CG17919", "DRSC id": "DRSC12571", "firefly Hh reporter signal, replicate 1": 1.06e5, "firefly Hh reporter signal, replicate 2": 68400, "Renilla reference signal, replicate 1": 4256, "Renilla reference signal, replicate 2": 2442, "Outcome": "inactive"}

Records listed so far with an active call:
{"Gene": "alphaCOP", "DRSC id": "DRSC08706", "firefly Hh reporter signal, replicate 1": 58280, "firefly Hh reporter signal, replicate 2": 40967, "Renilla reference signal, replicate 1": 4288, "Renilla reference signal, replicate 2": 3238, "Outcome": "active"}
